Values from PubChem BioAssay AID1159584 (Peter MacCallum Cancer Centre, 2016)

Aim: 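Knock-downs that harm CDH1-null cells more than parental MCF10A cells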 (primary screen)
Cell system: human MCF10A breast epithelial cells, parental and CDH1-null
Reagent: siRNA against human genes
Measurement: 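ATP luminescence (CellTiter-Glo) viability per line relative to mean mock wells over all plates, and the ratio of CDH1-null to parental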
Direction: CDH1-null / parental viability ratio: higher = CDH1-null cells survive relatively better than parental; CDH1-null viability vs mock: higher = more viable CDH1-null cells
The deposit covers about 18,000 reagents; shown is an unselected part. Further read-outs or replicates are left out here. Not given: the amount of reagent, the time to read-out.

gene knocked down	CDH1-null / parental viability ratio	CDH1-null viability vs mock (fraction of mock)
CENPO	0.8	0.74
TBC1D7	1.16	1.11
LDLRAD4	0.73	0.8
ABHD16A	1.1	0.9
FOXE1	0.9	0.87
CLDN7	0.79	0.65
OR8G1	1.07	0.8
PLPP3	1.37	0.92
SERP1	1.31	0.68
TINAGL1	1.23	1.06
FOCAD	0.98	0.89
PLCB3	1.1	1.08
GNE	1.06	0.85
CD248	0.84	0.92
IFI6	1.17	0.82
TAC4	0.98	1.08
STS	0.76	0.61
IRF3	0.88	0.82
RMDN3	0.86	0.54
BRD1	1.03	0.96
SPIRE2	1.14	0.89
TRPV1	1.22	0.9
EPB41L2	0.99	0.87
POLR2C	2.33	0.93
GDI1	1.18	0.91
SPAG11A	0.94	0.83
MYBPC2	1.2	0.54
PAXX	0.61	0.3
SFRP1	0.87	0.7
KRTAP5-7	1.33	0.56
SP7	1.1	0.88
BROX	0.98	0.88
ITSN1	1.03	0.62
MVB12A	1.09	0.74
WDR48	1.45	0.64
FUZ	0.99	0.77
SAA4	1.01	0.88
WDPCP	0.92	0.84
CHTOP	0.88	0.77
RASL10B	1.19	1.02
FPGS	0.71	0.34
FBXW10B	1.54	1
FGFR2	0.87	0.67
HS1BP3	1.02	0.85
IFT46	1.02	0.84
AP3B1	0.78	0.5
ABTB1	1.05	0.9
UGCG	0.84	0.81
MRTFA	1.05	0.97
NFE2L3	1.09	0.59
TAMALIN	1.12	1.05
ACTA2	1	0.76
OSBPL10	1.17	1.02
SPACA7	0.93	0.83
ALDOB	0.95	0.76
FCRL6	0.9	0.72
HNRNPUL1	1.01	1.04
APOL4	0.88	0.84
FAM216A	0.79	0.65
SIPA1L2	0.9	0.61
PRRX2	0.91	0.73
ZDHHC7	1.14	0.89
BMP8B	1.14	1
SNAP25	1.52	0.82
CENPV	1.09	0.87
CCDC174	0.91	0.78
PDE6H	0.97	0.76
FNDC5	1.52	0.79

Taken from above:
For “CDH1-null / parental viability ratio”, EPB41L2 shows 0.99
GDI1, CDH1-null / parental viability ratio → 1.18
Value for FCRL6 in “CDH1-null / parental viability ratio”: 0.9
For “CDH1-null viability vs mock (fraction of mock)”, STS has 0.61
Under “CDH1-null viability vs mock (fraction of mock)”, CD248 reads 0.92
Entry for GNE in “CDH1-null / parental viability ratio”: 1.06
